Reference: PubChem BioAssay AID2685 (National Center for Advancing Translational Sciences (NCATS), 2010)
This is one part of the list. These are further read-outs of the screen, such as a control signal, another cell line or another target. No call is given for them. Most of these compounds were active or inconclusive in the main read-out, so they are no random draw. The note in brackets gives the kind of curve behind each potency; many fits are weak.

Experiment: qHTS Assay for Lipid Storage Modulators in Drosophila S3 Cells;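 as to cell number change: cells counted by Cell Tracker Red CMTPX staining in the red channel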
Details: BODIPY lipid droplet fluorescence, 18-24 h; for cell number change: measured here: cell count max response, cells fed with added oleic acid
Outline: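 Laser-scanning cytometry quantifies lipid droplet accumulation (500–530 nm total intensity; droplet/cell object ratio) in oleic acid-fed (400 uM added) Drosophila S3 cells treated with a concentration series. 20 uM Triacsin C defined 100% inhibition.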

[1] = measured here: cell number channel AC50, cells fed with added oleic acid
[2] = measured here: lipid fluorescence (Fed channel) AC50, cells fed with added oleic acid

SMILES: O=C(COC(=O)c1cnccn1)c1ccc(OC(=O)c2ccccc2)cc1
- cell number change: -62.9%
- AC50 [1]: 16.4 µM [falling, single point]

SMILES: COCc1c(C(=O)OCC(=O)Nc2ccc(OC(F)F)cc2)oc2ccccc12
- cell number change: 18.2%
- AC50 [2]: 1.64 µM [falling, partial curve]

SMILES: CCOc1nc(N2CCOCC2)nc(C)c1[N+](=O)[O-]
- cell number change: 0.856%
- AC50 [1]: 0.651 µM [rising, partial curve, poor fit]
- AC50 [2]: 4.11 µM [rising, partial curve, poor fit]

SMILES: COc1ccc(NC(=O)Cc2ccsc2)c(OC)c1
- cell number change: 17.4%
- AC50 [2]: 18.4 µM [rising, partial curve, poor fit]

SMILES: O=C(NC(=S)Nc1ccc(S(=O)(=O)Nc2nccs2)cc1)c1ccc(F)c(F)c1
- AC50 [2]: 0.164 µM [falling, full curve, poor fit]

SMILES: Cc1occc1-c1nnc(SCC(=O)Nc2ccc(F)cc2)n1Cc1ccccc1
- cell number change: -2.66%
- AC50 [2]: 1.46 µM [rising, partial curve]

SMILES: COc1ccc(N2CCN(C(CNS(=O)(=O)c3cc(F)ccc3F)c3cccnc3)CC2)cc1 (configuration not stated)
- cell number change: 277%
- AC50 [1]: 25.9 µM [rising, partial curve]
- AC50 [2]: 29.1 µM [rising, partial curve]

SMILES: CC(=O)c1sc(NC(=O)COc2c(C)cc(Cl)cc2C)nc1C
- cell number change: 32.6%
- AC50 [1]: 0.13 µM [rising, full curve]

SMILES: O=C(C1CC1)N1N=C(c2ccccc2)CC1(O)C(F)(F)F (configuration not stated)
- cell number change: -27.3%
- AC50 [2]: 29.1 µM [falling, single point]

SMILES: Brc1ccccc1-c1nnc2sc(-c3ccc4c(c3)OCCO4)nn12
- cell number change: 76.8%
- AC50 [1]: 18.4 µM [rising, partial curve]
- AC50 [2]: 6.51 µM [rising, single point]

SMILES: Cc1cc(C)cc(N(CCC#N)C(=O)COC(=O)c2ccccc2SCC(=O)N2CCCC2)c1
- cell number change: 40.8%
- AC50 [1]: 6.51 µM [rising, partial curve]

SMILES: COc1cccc(CNC(=O)Cn2c(=O)c3cccn3c3ccccc32)c1
- cell number change: 101%
- AC50 [1]: 23.1 µM [rising, partial curve, poor fit]
- AC50 [2]: 29.1 µM [rising, single point]

SMILES: Cc1ccc(C)c(N2CCN(C(=O)CC3Sc4ccccc4NC3=O)CC2)c1 (configuration not stated)
- cell number change: -0.891%
- AC50 [2]: 6.51 µM [falling, single point]

SMILES: O=C1NC(=O)C2(COC(c3ccccc3Cl)OC2)S1 (configuration not stated)
- cell number change: 2.06%
- AC50 [2]: 1.16 µM [rising, single point]

SMILES: CC(C)(NC(=O)c1cc(Cl)c2ccccc2c1O)C(=O)O
- cell number change: 7%
- AC50 [2]: 29.1 µM [falling, single point]

SMILES: N#CCC(=O)Nc1ccc(C(=O)OCC(=O)N=c2sccn2Cc2ccccc2Cl)cc1
- AC50 [1]: 6.51 µM [rising, single point]
- AC50 [2]: 6.51 µM [rising, single point]

SMILES: COc1cccc(NC(=O)c2cnc[nH]2)c1
- cell number change: 47.7%
- AC50 [1]: 8.2 µM [rising, single point]

SMILES: COC(=O)c1ccc(C)c(NS(=O)(=O)c2ccc3c(c2)OCCO3)c1
- AC50 [1]: 5.8 µM [rising, partial curve, poor fit]

SMILES: CC(=O)Nc1ccc(S(=O)(=O)Nc2cccc(-c3csc(C)n3)c2)cc1
- cell number change: -8%
- AC50 [2]: 0.00461 µM [falling, full curve, poor fit]

SMILES: O=C(CN1C(=O)CCC1=O)NCC12CC3CC(CC(C3)C1)C2
- AC50 [1]: 1.64 µM [falling, partial curve, poor fit]
- AC50 [2]: 6.51 µM [falling, single point]

SMILES: CN(Cc1ccccc1)C(=O)COc1cc(=O)n(C)c2ccccc12
- cell number change: 1.05%
- AC50 [2]: 0.00411 µM [rising, full curve, poor fit]

SMILES: CCCCN(C)CC(O)Cn1cc(/C=C/C(=O)c2ccc(C)cc2)c2ccccc21 (configuration not stated)
- cell number change: -39.2%
- AC50 [1]: 29.1 µM [falling, single point]
- AC50 [2]: 29.1 µM [falling, single point]

SMILES: Cc1csc(NC(=O)c2cccc(C)c2C)n1
- cell number change: -17.3%
- AC50 [2]: 0.00731 µM [falling, full curve, poor fit]

SMILES: O=c1c2ccccc2c(C=Nc2cccc(S(=O)(=O)NC3=NCCCCC3)c2)c(O)n1Cc1ccccc1
- cell number change: 17.9%
- AC50 [2]: 18.4 µM [rising, single point]

SMILES: CSCC[C@H](NC(=O)Nc1ccc(C)cc1C)C(=O)O
- cell number change: -16%
- AC50 [2]: 4.11 µM [falling, full curve, poor fit]

SMILES: COc1cc(C(=O)N2C(=O)c3cccc(N)c3C2=O)cc(OC)c1OC
- cell number change: 25.1%
- AC50 [2]: 32.6 µM [rising, single point]

SMILES: Cc1ccc(OCC(=O)N2CCc3ccccc3C2)cc1
- cell number change: -18.5%
- AC50 [2]: 29.1 µM [rising, single point]

SMILES: Cc1cc(C(=O)NCc2ccc(S(N)(=O)=O)cc2)c(C)o1
- cell number change: -4.53%
- AC50 [2]: 5.8 µM [falling, full curve]

SMILES: COc1ccc(N2CCN(C(=O)c3cc4c(s3)-c3ccccc3S(=O)(=O)C4)CC2)cc1
- AC50 [1]: 0.082 µM [rising, full curve, poor fit]

SMILES: CC(C(=O)N(C)Cc1ccccc1)N1CCN(C/C=C/c2ccccc2)CC1 (configuration not stated)
- cell number change: 24.7%
- AC50 [2]: 7.31 µM [rising, partial curve, poor fit]

SMILES: O=C(Cc1n[nH]c(=O)c2ccccc12)NCc1ccccc1
- cell number change: 11.1%

SMILES: CC(=O)OCCNc1cc(SCc2ccco2)c2nonc2c1[N+](=O)[O-]
- cell number change: -7.4%
- AC50 [2]: 20.6 µM [falling, single point]

SMILES: Cc1cccc(N2C(=O)CC(N3CCOCC3)C2=O)c1 (configuration not stated)
- cell number change: -37.9%
- AC50 [1]: 29.1 µM [falling, single point]

SMILES: COc1cccc(NC(=S)N(CCN(C)C)C(C)c2ccncc2)c1 (configuration not stated)
- cell number change: 19.5%
- AC50 [2]: 11.6 µM [rising, single point]

SMILES: CN(C)/C=N/c1cc(=O)n(C)c(=O)n1Cc1ccccc1
- cell number change: 7.51%
- AC50 [2]: 14.6 µM [rising, single point]

SMILES: Cc1cc2ccccc2nc1SCC(=O)N1c2ccccc2CC1C (configuration not stated)
- cell number change: 28.2%
- AC50 [1]: 0.651 µM [rising, partial curve, poor fit]
- AC50 [2]: 2.59 µM [rising, full curve]

SMILES: Cc1ccc2oc(C(=O)N3CCN(C)C[C@@H]3C(C)C)c(C)c2c1
- cell number change: -3.27%

SMILES: COC(=O)C1CCN(S(=O)(=O)c2ccc(OC)cc2)CC1
- cell number change: -55.5%
- AC50 [1]: 14.6 µM [falling, partial curve, poor fit]
- AC50 [2]: 18.4 µM [falling, partial curve]

SMILES: CCOC(=O)Cn1nc(C)c(NC(=O)CCc2ccc(OC)cc2)c1C
- cell number change: -6.46%
- AC50 [1]: 0.731 µM [falling, full curve]
- AC50 [2]: 4.11 µM [falling, single point]

SMILES: CC(C)C(NS(=O)(=O)c1cccs1)C(=O)NCc1ccc2c(c1)OCO2 (configuration not stated)
- cell number change: 32.8%
- AC50 [1]: 32.6 µM [rising, single point]

SMILES: CC1(C)Oc2ccc3ccc(=O)oc3c2[C@@H](O)[C@H]1O
- cell number change: 14.9%
- AC50 [2]: 0.00461 µM [rising, full curve, poor fit]

SMILES: CC(C)N(Cc1nc(-c2ccccc2)no1)S(=O)(=O)c1ccccc1
- cell number change: 16.3%
- AC50 [2]: 25.9 µM [falling, single point]

SMILES: COc1ccc2nc(C)cc(SCC(=O)N/N=C/c3ccc(O)cc3O)c2c1
- cell number change: -12.4%
- AC50 [2]: 16.4 µM [falling, single point]

SMILES: O=C(C[n+]1cc(-c2ccc(Cl)cc2)n2c1CCCCC2)c1ccccc1
- cell number change: -6.67%

SMILES: COC(=O)c1cc(C)sc1NC(=S)N1CCN(CCc2ccccc2)CC1
- cell number change: -11.7%
- AC50 [1]: 6.51 µM [falling, single point]
- AC50 [2]: 4.11 µM [falling, full curve, poor fit]

SMILES: Cc1nnc(SCC(=O)N2c3ccccc3CC2C)s1 (configuration not stated)
- AC50 [1]: 2.31 µM [rising, partial curve]

SMILES: C=CCOc1ccccc1CN1CCC(n2nccc2NC(=O)C2CC2)CC1
- cell number change: -7.73%
- AC50 [2]: 4.11 µM [rising, full curve]

SMILES: Cc1cc(Oc2ccc(C(C)(C)C)cc2)nc(N2CCOCC2)n1
- cell number change: 25.3%

SMILES: CCN(CC)CCNC(C(=O)Nc1ccc([N+](=O)[O-])cc1Br)c1ccccc1 (configuration not stated)
- cell number change: -5.03%

SMILES: CC(OC(=O)c1oc2ccccc2c1CSC1CCCCC1)C(=O)NC(N)=O (configuration not stated)
- cell number change: 3.86%

SMILES: Cc1ccc(S(=O)(=O)Cc2ccc(C(=O)N3CCCCC3C)cc2)cc1 (configuration not stated)
- cell number change: 30.3%

SMILES: CC(C)(C)C(=O)CSc1nnc(Nc2ccccc2)s1
- cell number change: -35.8%
- AC50 [1]: 29.1 µM [falling, single point]

SMILES: O=c1c2cn[nH]c2nc(SCc2ccccc2F)n1-c1ccc(Br)cc1
- cell number change: 2.49%
- AC50 [1]: 3.26 µM [rising, single point]
- AC50 [2]: 3.26 µM [rising, partial curve]

SMILES: CC(C)(O)[C@H](O)COc1c2occc2cc2ccc(=O)oc12
- cell number change: 17.1%
- AC50 [2]: 0.366 µM [rising, full curve]

SMILES: CN(C)c1nc(N2CCOCC2)nc(N(c2ccccc2)c2ccccc2)n1
- cell number change: -1.04%

SMILES: Cc1cccc(/C=N/N2CCN(c3ccccc3)CC2)c1
- cell number change: 42.7%
- AC50 [1]: 20.6 µM [rising, single point]

SMILES: CNC(=O)c1c(O)c2cccc3c2n(c1=O)CCC3
- cell number change: -14%
- AC50 [2]: 0.146 µM [rising, full curve, poor fit]

SMILES: Cc1nn(CC(=O)NCCCN2CCCC2)c(=O)c2nn(-c3ccccc3)c(C)c12
- cell number change: -11%

SMILES: CCC(CC)C(=O)Nc1cccc(C(=O)N2CCOCC2)c1
- cell number change: -9.53%
- AC50 [2]: 1.46 µM [falling, full curve]

SMILES: N#Cc1nc(-c2cccc3ccccc23)oc1N
- cell number change: -23.2%

SMILES: CNC(=O)Cn1ncc2c(C)n(Cc3ccc(C)cc3)c(C)c2c1=O
- cell number change: -3.57%
